Measurements reported in PubChem BioAssay AID652272 (Drosophila RNAi Screening Center, 2013)

Screen: 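Genome-wide knock-down search for components of Hedgehog signalling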 (primary screen)
System: Drosophila clone 8 (Cl8) cells
Reagent: long dsRNA against Drosophila genes
Measured: 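Plate reader light from a firefly reporter under a ptc promoter fragment that responds to Hedgehog, with Renilla light as transfection reference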
Reading the numbers: firefly Hh reporter signal: higher = more ptc reporter light; Renilla reference signal: higher = more Renilla control light
Call rule: 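Called a hit if the two-replicate mean z-score lies below -2 or above +3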
Calls: active = hit: reporter lowered or raised; inactive = not a hit
The screen tested about 21,000 reagents; below is an unselected part of those that have a named target and a result. In the full data, 503 (2.4%) were called active. 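Raw plate light values, not normalised; calls rest on replicate z-scores that were not deposited; hits include reporter decreases as well as increases.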 Unmarked entries are inactive. A plus sign joins genes that one reagent is predicted to hit. Not given: the amount of reagent, the time to read-out.

no.	Target gene	amplicon	firefly Hh reporter signal, replicate 1	firefly Hh reporter signal, replicate 2	Renilla reference signal, replicate 1	Renilla reference signal, replicate 2
1	pll (pelle)	DRSC17026	1.62e5	96752	3571	2608
2	CG31195	DRSC13440	52842	1.36e5	11621	2871
3	zormin	DRSC07969	1.32e5	2.22e5	4237	9568
4	zormin	DRSC08210	70705	43988	1926	3158
5	zormin	DRSC08212	55778	49202	1720	3549
6	zormin	DRSC08213	75225	42985	1760	3123
7	zormin	DRSC08297	77060	53904	1530	4045
8	zormin	DRSC08571	50759	48348	3378	2725
9	mrt (martik)	DRSC15484	73731	97714	2569	3559
10	CG17633	DRSC02631	96288	51218	2328	4544
11	CG5355	DRSC02844	61162	62619	3450	2727
12	Dred (Dctn1-related)	DRSC11057	1.26e5	1.08e5	4445	3280
13	Dred (Dctn1-related)	DRSC11059	4.19e5	76476	4048	4048
14	CG31819	DRSC01532	1.04e5	1.71e5	2912	8481
15	Cpr97Eb (Cuticular protein 97Eb)	DRSC15123	1.11e5	1.35e5	3595	4698
16	CG34007	DRSC01790	1.35e5	2.71e5	4048	12570
17	CG31802	DRSC02459	1.47e5	61209	3632	4225
18	CG2310	DRSC15438	64404	63035	1280	1523
19	cnc (cap-n-collar)	DRSC14676	5.90e5	1.14e5	26186	3485
20	cnc (cap-n-collar)	DRSC15289	1.52e5	70291	5808	3193
21	cnc (cap-n-collar)	DRSC15600	4.79e5	1.19e5	24080	3367
22	cnc (cap-n-collar)	DRSC15601	5.55e5	90225	25548	2684
23	Uba1 (Ubiquitin activating enzyme 1)	DRSC07567	48486	46888	3097	2930
24	CG34316 + asRNA:CR43471	DRSC13080	37252	2.23e5	7613	4902
25	CG16713	DRSC00477	1.41e5	60929	3506	6749
26	shams	DRSC16590	4.75e5	85259	23556	2364
27	sPLA2 (secretory Phospholipase A2)	DRSC06041	1.23e5	69475	3196	6600
28	Uhg2 + snoRNA:Me18S-G1620 + snoRNA:U14:30Ea	DRSC01100	4.48e5	1.72e5	25955	9164
29	Slmap (Sarcolemma associated protein)	DRSC03799	51050	43923	1495	4345
30	Abl (Abl tyrosine kinase)	DRSC09661	1.50e5		2571	7100
31	CG15537	DRSC15073	1.12e5	1.30e5	1968	2585
32	CG16799	DRSC06626	1.64e5	82685	5316	6400
33	CG33125	DRSC00145	5.22e5	2.31e5	31232	10119
34	CG14286	DRSC14767	4.34e5	76985	27130	2016
35	krz (kurtz)	DRSC16979	82742	2.33e5	3046	8198
36	Cont (Contactin)	DRSC12149	96347	84661	4322	3936
37	mRpL42 (mitochondrial ribosomal protein L42)	DRSC06235	78521	63159	1858	4893
38	Mal-B1 (Maltase B1)	DRSC02416	1.38e5	60874	1888	5169
39	Muc4B (Mucin 4B)	DRSC18062	49101	1.66e5	2082	8530
40	Muc4B (Mucin 4B)	DRSC18063	94672	2.73e5	3565	11234
